Laboratory results from PubChem BioAssay AID493014 (National Center for Advancing Translational Sciences (NCATS), 2011).
The campaign covered roughly 340,000 compounds. About 170 (0.05%) were called active. Calls come from the whole dose curve; as a rule, active = well fitted inhibition curve with a large enough effect in the signal ratio, with a control signal flat (not every such curve was filed as active); inconclusive = small, poorly fitted or top-dose-only effect, or effect the other way, or a change in a side signal; inactive = flat fitted curve, though single readings scatter; the % refers to the signal ratio. Inconclusive means that the source gave no clear call. Potencies beside an inconclusive call are fits to weak or partial responses and may not hold up.

Test: qHTS Assay to Find Inhibitors of Chronic Active B-Cell Receptor Signaling;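 for activity change, negative = inhibition: plate controls were basal doxycycline-induced cells for no effect and cells given 10 µM MG132 for full effect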
Conditions: ABC-DLBCL IkBa-CBG/CBR reporter, luminescence ratio (green luciferase fused to IkBa over red control in TMD8 lymphoma cells), 4 h; activity change, negative = inhibition: at 46.1 µM (top of the series) unless noted
In short: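 Doxycycline induced both beetle luciferases in TMD8 lymphoma cells; IKK-driven degradation limits the IkappaBalpha-fused green signal, while red luminescence normalises for cell number and nonspecific effects. Compounds tested up to 46 uM, 4 hrs.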
Potency is the fitted concentration of half-maximal effect.

SMILES	activity change, negative = inhibition	Potency
COc1cccc(C2C3=C(N=c4s/c(=C\c5ccc(OCC(=O)O)cc5)c(=O)n42)c2ccccc2CC3)c1 (stereo not drawn)	inconclusive: -1.37%	
CCOC(=O)c1sc(N2C(=O)C(O)=C(C(=O)c3ccc(C)o3)C2c2cccc([N+](=O)[O-])c2)nc1C (stereo not drawn)		inconclusive: 17.8 µM [falling, partial curve]
COc1cc(NS(=O)(=O)c2ccc(NC(=S)NC(=O)c3sc4ccccc4c3Cl)cc2)nc(OC)n1	inconclusive: -17.3%	
